Values from PubChem BioAssay AID743121 (NCATS, 2013)
In all, the deposit lists about 26,000 reagents; below is an unselected part. 167 of all reagents (0.63%) count as active. 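Calls are per gene from RSA p-values that are not deposited; an individual active-marked siRNA can sensitise only weakly.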 A number with no mark means an inactive call. The numbers tell different reagents against one gene apart. Not all columns of the deposit are shown.

- Test: 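Knock-downs that sensitise breast cancer cells to camptothecin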 (primary screen)
- Cell system: MDA-MB-231 cells, a human breast cancer line
- Reagent: single siRNA against human genes, 20 nM siRNA (0.8 pmol per well)
- Duration: 120 h (drug added 48 h after transfection, read 72 h later)
- Challenge: camptothecin 20 nM (about EC30) for 72 h; vehicle 0.1% DMSO in parallel plates
- Measured: 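Cell viability by ATP luminescence (CellTiter-Glo) as % of non-targeting siRNA wells, and the log2 ratio of viability without drug over viability with camptothecin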
- Scale: log2 vehicle/camptothecin viability: higher = stronger sensitisation to camptothecin; viability with camptothecin: higher = more viable cells
- Rule for the call: 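Each gene scored by redundant siRNA activity (RSA) over its individual siRNA ratios; a gene is called active at p < 0.001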

gene knocked down	siRNA no.	log2 vehicle/camptothecin viability	viability with camptothecin (% of control)
MYL6 (myosin light chain 6)	1	-0.141	82.4
MYL6 (myosin light chain 6)	2	-0.271	91.4
MYL6 (myosin light chain 6)	3	-0.102	25.5
SLC6A11	1	0.0149	75.8
SLC6A11	2	-0.0157	103
SLC6A11	3	0.304	68.9
SLC6A11	4	0.185	67.1
SMCHD1	1	-0.0418	107
SMCHD1	2	-0.129	101
SMCHD1	3	-0.241	67.1
SMCHD1	4	-0.0535	103
USP33 (ubiquitin specific peptidase 33)	1	0.772	27.1
USP33 (ubiquitin specific peptidase 33)	2	-0.215	118
USP33 (ubiquitin specific peptidase 33)	3	-0.104	74
USP33 (ubiquitin specific peptidase 33)	4	-0.309	109
SCAF11 (SR-related CTD associated factor 11)	1	-0.202	116
SCAF11 (SR-related CTD associated factor 11)	2	-0.334	47
SCAF11 (SR-related CTD associated factor 11)	3	-0.122	83.3
SCAF11 (SR-related CTD associated factor 11)	4	0.0732	37.7
RBM4 (RNA binding motif protein 4)	1	-0.305	90.3
RBM4 (RNA binding motif protein 4)	2	-0.406	89.4
RBM4 (RNA binding motif protein 4)	3	0.00605	83.8
RBM4 (RNA binding motif protein 4)	4	-0.327	63.2
PPFIA2 (PPFI scaffold protein A2)	1	0.17	62.5
PPFIA2 (PPFI scaffold protein A2)	2	-0.00717	31.5
PPFIA2 (PPFI scaffold protein A2)	3	0.446	2.23
PPFIA2 (PPFI scaffold protein A2)	4	-0.0773	87.9
TUBGCP6 (tubulin gamma complex component 6)	1	-0.672	123
TUBGCP6 (tubulin gamma complex component 6)	2	-0.0908	59.3
TUBGCP6 (tubulin gamma complex component 6)	3	-0.185	88.7
TUBGCP6 (tubulin gamma complex component 6)	4	-0.0541	43.2
HSPB8 (heat shock protein family B (small) member 8)	1	0.492	76.3
HSPB8 (heat shock protein family B (small) member 8)	2	-0.0741	99.5
HSPB8 (heat shock protein family B (small) member 8)	3	0.0644	93.7
HSPB8 (heat shock protein family B (small) member 8)	4	-0.241	62.1
LSR (lipolysis stimulated lipoprotein receptor)	1	0.0608	64.3
LSR (lipolysis stimulated lipoprotein receptor)	2	0.251	52.5
LSR (lipolysis stimulated lipoprotein receptor)	3	-0.415	43
LSR (lipolysis stimulated lipoprotein receptor)	4	-0.087	57.2
PPP1CB (protein phosphatase 1 catalytic subunit beta)	1	-0.424	78
PPP1CB (protein phosphatase 1 catalytic subunit beta)	2	0.396	34.6
PPP1CB (protein phosphatase 1 catalytic subunit beta)	3	-0.176	70.3
PPP1CB (protein phosphatase 1 catalytic subunit beta)	4	0.126	31
STAB1 (stabilin 1)	1	-0.202	71.5
STAB1 (stabilin 1)	2	0.289	53.6
STAB1 (stabilin 1)	3	-0.491	69.4
STAB1 (stabilin 1)	4	-0.386	54.3
BNIP3L (BCL2 interacting protein 3 like)	1	-0.461	99.7
BNIP3L (BCL2 interacting protein 3 like)	2	-0.0241	83.9
BNIP3L (BCL2 interacting protein 3 like)	3	-0.0952	97.9
BNIP3L (BCL2 interacting protein 3 like)	4	-0.285	40
SPC25 (SPC25 component of NDC80 kinetochore complex)	1	-0.875	107
SPC25 (SPC25 component of NDC80 kinetochore complex)	2	-0.549	84.2
SPC25 (SPC25 component of NDC80 kinetochore complex)	3	0.0581	26.6
SPC25 (SPC25 component of NDC80 kinetochore complex)	4	0.137	82.6
RPGR (retinitis pigmentosa GTPase regulator)	1	-0.258	68.6
RPGR (retinitis pigmentosa GTPase regulator)	2	-0.315	117
RPGR (retinitis pigmentosa GTPase regulator)	3	0.0966	94.2
RPGR (retinitis pigmentosa GTPase regulator)	4	-0.106	106
PMEPA1 (prostate transmembrane protein, androgen induced 1)	1	-0.173	81.6
PMEPA1 (prostate transmembrane protein, androgen induced 1)	2	-0.949	81.6
PMEPA1 (prostate transmembrane protein, androgen induced 1)	3	-0.303	70.9
PMEPA1 (prostate transmembrane protein, androgen induced 1)	4	-0.19	70.5
PERP (p53 apoptosis effector related to PMP22)	1	-0.0536	93.2
PERP (p53 apoptosis effector related to PMP22)	2	-0.12	104
PERP (p53 apoptosis effector related to PMP22)	3	-0.138	104
PERP (p53 apoptosis effector related to PMP22)	4	0.229	70.4
P2RX1 (purinergic receptor P2X 1)	1	0.467	31
P2RX1 (purinergic receptor P2X 1)	2	-0.472	91.3
P2RX1 (purinergic receptor P2X 1)	3	-0.19	85.2
CNGB3 (cyclic nucleotide gated channel subunit beta 3)	1	-0.308	42.9
CNGB3 (cyclic nucleotide gated channel subunit beta 3)	2	0.368	57.9
CNGB3 (cyclic nucleotide gated channel subunit beta 3)	3	0.222	43.6
CNGB3 (cyclic nucleotide gated channel subunit beta 3)	4	0.166	72.4
ACAT2 (acetyl-CoA acetyltransferase 2)	1	-0.316	68.9
ACAT2 (acetyl-CoA acetyltransferase 2)	2	-0.15	85.6
ACAT2 (acetyl-CoA acetyltransferase 2)	3	-0.064	37
ACAT2 (acetyl-CoA acetyltransferase 2)	4	0.21	61.6
SDC4 (syndecan 4)	1	-0.162	5.52
SDC4 (syndecan 4)	2	0.114	80.2
SDC4 (syndecan 4)	3	0.0605	92
SDC4 (syndecan 4)	4	-0.0561	81.2
BRSK2 (BR serine/threonine kinase 2)	1	-0.0855	96.4
BRSK2 (BR serine/threonine kinase 2)	2	-0.335	42.6
BRSK2 (BR serine/threonine kinase 2)	3	-0.507	59.9
BRSK2 (BR serine/threonine kinase 2)	4	-0.571	94.3
OSMR (oncostatin M receptor)	1	-0.21	44.6
OSMR (oncostatin M receptor)	2	-0.445	7.49
OSMR (oncostatin M receptor)	3	-0.117	71.5

Look-ups from above:
SCAF11 (SR-related CTD associated factor 11) #3, viability with camptothecin (% of control) = 83.3
USP33 (ubiquitin specific peptidase 33) #4, log2 vehicle/camptothecin viability: -0.309
Value for SPC25 (SPC25 component of NDC80 kinetochore complex) #3 under “log2 vehicle/camptothecin viability”: 0.0581
Value of BRSK2 (BR serine/threonine kinase 2) #3 in “viability with camptothecin (% of control)”: 59.9
BNIP3L (BCL2 interacting protein 3 like) #4, log2 vehicle/camptothecin viability = -0.285
Value for USP33 (ubiquitin specific peptidase 33) #1 in “viability with camptothecin (% of control)”: 27.1
